The results in this text go back to paper PMC12282061.

In one assay the target is TBK1-HA (swine). As to the kind of experiment: co-IP; HEK293T cells transfected with TBK1-HA or IKKε-HA along with METTL3-Flag; at 24 h lysates immunoprecipitated with anti-HA antibody; western blot.
For the next assay, the target named is METTL3-Flag (swine). In words: co-IP; HEK293T cells co-transfected with the two tagged constructs; lysates (M2 buffer, 0.5% Nonidet P-40, 20 mM Tris-HCl, 3 mM EDTA, 3 mM EGTA, PMSF) immunoprecipitated with anti-Flag (M2 beads, 3 h), washed five times with 500 mM NaCl buffer; western blot; also with METTL3-GFP or METTL3-D395A-GFP co-expressed (Fig. 7D, 7I). On the technique in general: In western blotting, separated proteins are transferred to a membrane and probed.

These are yes or no findings as the source states them, for the method shown. Binding seen in cells or lysates may run through a third protein. Binding calls can cover weak binding; strength is not graded here.

On to METTL3-Flag (from UniProt A0A7H1RGN6), for which the binding entry in the assay with TBK1-HA (swine) is “binds”. As to TBK1-HA (from UniProt A0A4X1W422), the binding result with METTL3-Flag (swine) was “binds”.
